Test results published in US20250134667A1 (priority 2022, published 2025).
Ends that are not written are not given here.

Test: general procedure: Fmoc solid-phase peptide synthesis; Rink Amide MBHA resin; HBTU/DIPEA
Conditions: whole synthesis, liquid chromatography, scale of the general procedure 50 mg resin

For “GKCSTRGRKSSRRKK-NH2 (C-terminus assumed)”, the “final HPLC purity” value was 98.2%.
